At least one compound was matched to its structure with a doubt left.
Assays:
[1] = system: STING; assay: Dual-fluorescence reporter gene activity assay in HEK293T cells (hSTING-wt, IFNβ promoter luciferase); type: cell-based, human; details: 5 μM, without any transfection reagent, 24 h, FIG. 1
Experimental: Activity assay of two cyclic dinucleotide prodrug molecules in HEK293T cells
The principle is as follows: dual-fluorescence reporter gene experiments: After entering a cell, the cyclic dinucleotide prodrug molecule passes through thioesterase in the cytoplasm of the cell or a reducing environment, so that thioester bond breakage or disulfide bond breakage is carried out, then an intermediate is obtained, a sulfur atom at a p position can nucleophilically attack a carbon atom at the a position, cyclic thioethane is removed, cyclic dinucleotides with a phosphodiester structure of a parent drug with negative charges are released, the intracellular STING protein is combined and activated, interferon regulatory factor 3 (IRF3) is phosphorylated, phosphorylated IRF3 enters into the nucleus and combined with the promoter region of a interferon-β gene to cause the expression of interferon, and based on these, the interferon gene promoter is introduced into a promoter of firefly luciferase, so that the cell activity of the prodrug molecule can be measured by using a dual-fluorescence reporter gene method.
(1) preparing the compound solution: the compound 8 and the compound 16 were dissolved in DMSO, respectively, to obtain a final concentration of 1 mM. cddA35 was dissolved in water and similarly prepared at a concentration of 1 mM. […]

[2] = system: type I interferon expression in THP-1 cells; assay: Type I interferon activity assay in monocytic cell line THP-1 (THP-1-Lucia) cells; type: cell-based; details: action concentration of 10 μM, without any transfection reagent, 24 h, FIG. 2; activity much higher than ADU-S100
Experimental: Activity Assay of Two Cyclic Dinucleotide Prodrug Molecules in Monocytic Cell Line THP-1 Cells
The THP-1-Lucia cells confluency reached about 80%, and the compound 8, the compound 16 and the drug ADU-S100 are directly dissolved into a culture medium according to a certain concentration and added into a 24-well plate, wherein four wells are parallel. The cells were maintained under the culture condition of 37° C. and 5% CO2 for 24 h. After the end of the culture, luciferase activity was measured. Wherein, the test results of the type I interferon of the compound 8, the compound 16 and the drug ADU-S100 in the monocyte cell line THP-1 under the action concentration of 10 μM are shown in FIG. 2; EC50 values for the compound 8 and the compound 16 to cause type I interferon expression in THP-1 cell lines were then determined by dose-response curves for serial dilutions at various concentrations, as shown in FIG. 3.

[3] = system: CT-26-Luc cells; assay: Anticancer activity assay in CT-26 mouse tumor model; type: in vivo, mice; details: 1 mg/kg intratumoral injection, once every two days, three times, FIG. 4 and FIG. 5
Experimental: Anticancer Activity Assay of the Compound 8
Mice: BABL/C female mice, weight 18 g to 22 g. The source is the animal experiment center in Guangdong province, and the mice are fed with pellet feed and freely eat and drink water.
Tumor Cell Lines: CT-26-Luc Cells […]
The administration method includes the following steps: the administration was started at the 10th day after tumor inoculation growth, and 50 microliters/mouse was administered once every two days for a total of three times by intratumoral injection. The growth of tumors in mice was detected by chemiluminescence using the IVIS Spectrum Imaging System. […] After imaging, fluorescence values were converted to photon numbers and the total number of fluorescence photons for each experimental group was counted. […] In which the numbers in FIG. 4a, FIG. 4b, FIG. 4c, FIG. 4d, FIG. 4e and FIG. 4f represent the total number of fluorescence photons in the circular region (ROI, region of interest), and FIG. 4g and FIG. 4h are statistical graphs of the total number of fluorescence photons for each experimental group, respectively. […]

## CC(C)(C)C(=O)SCCOP1(=O)OC[C@H]2O[C@@H](n3cnc4c(N)ncnc43)C[C@H]2OP(=O)(OCCSC(=O)C(C)(C)C)OC[C@H]2O[C@@H](n3cnc4c(N)ncnc43)CC2O1 (stereo partly drawn) [Compound 8]
[1]
  dual-fluorescence result: crossing cell membranes and activating STING pathway / expression of interferon: can autonomously cross cell membranes without any transfection reagent
[2]
  expression of type I interferon in THP-1 cell line: strong expression of type I interferon
[3]
  growth of the tumor in the mice: substantially disappeared

From US12257265B2, “Cyclic dinucleotide prodrug molecule, preparation method therefor and application thereof” (SHENZHEN YING BIOPHARMACEUTICAL CO., LTD., priority 2019, dated 2025)
